# PubChem BioAssay AID1259354 (Paczesny and Yang Labs, IUPUI and University of Michigan, 2018)
# Amino acid sequences for entries named in this document (tags omitted). A change or cut given only in a name is not applied to a line headed by its entry.
# UniProt Q01638: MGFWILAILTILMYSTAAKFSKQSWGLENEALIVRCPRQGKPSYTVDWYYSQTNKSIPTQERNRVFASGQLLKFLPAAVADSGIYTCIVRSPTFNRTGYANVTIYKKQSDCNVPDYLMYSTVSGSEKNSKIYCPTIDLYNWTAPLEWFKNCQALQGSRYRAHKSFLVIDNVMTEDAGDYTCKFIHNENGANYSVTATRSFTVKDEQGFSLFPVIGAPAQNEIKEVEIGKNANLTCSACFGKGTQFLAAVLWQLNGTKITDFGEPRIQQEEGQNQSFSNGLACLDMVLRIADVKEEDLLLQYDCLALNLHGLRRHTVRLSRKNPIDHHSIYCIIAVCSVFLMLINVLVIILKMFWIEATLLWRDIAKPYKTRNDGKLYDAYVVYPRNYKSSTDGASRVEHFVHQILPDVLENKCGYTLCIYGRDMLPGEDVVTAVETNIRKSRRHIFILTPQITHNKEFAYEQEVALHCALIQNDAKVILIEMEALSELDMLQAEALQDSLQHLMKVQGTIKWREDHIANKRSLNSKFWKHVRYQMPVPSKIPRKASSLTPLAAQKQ
# Several values for one entry are separate records, joined by “and”; a condition that tells them apart may be missing. Equal values may be shown once. In all, about 78,000 compounds went through this assay and about 1,800 (2.3%) were called active. The inconclusive results got no clear call from the source; some entries with a clear call stand among them for comparison. No stated cut-off is given here; in the data, active means inhibition above about 30%; inconclusive means mostly about 10% to 28%; inactive means weaker than that.
# Target: Interleukin-1 receptor-like 1 (Homo sapiens) (UniProt Q01638)
# Assay: blocks human ST2 binding to IL-33, primary screen, biochemical, AlphaLISA (AID 1259354)
# Details: AlphaLISA ST2-Fc/biotin-IL-33 interaction, 1 h; at 17 µM, active compounds read high
row,Structure (SMILES),inhibition
1,CC(C)N1CC(OCc2ccc(OC(F)(F)F)cc2)CN(C(=O)c2cc[n+]([O-])cc2)CC1=O (stereo unspecified),inconclusive: 20%
2,Cc1c(O)ccc(-c2[nH]ncc2Oc2ccccc2)c1O,inconclusive: 19%
3,CCOC(=O)c1c(-c2ccccc2)csc1NC(=O)c1cc(-c2cccs2)on1,inconclusive: 12%
4,O=C(COc1ccccc1)N[C@H]1CO[C@H]2[C@@H]1OC[C@@H]2Nc1nccc(-c2ccc(-c3ccccc3)cc2)n1,inactive
5,CN1CCN2CCN(C(=O)c3c[nH]n4ccnc34)CC2C1 (stereo unspecified),inconclusive: 15%
6,Cc1ccn2c(C(=O)NCC(C)Oc3cccnc3)c(C)nc2c1 (stereo unspecified),inconclusive: 12%
7,CC(=O)N(C)c1ccc(NC(=O)CNCC(O)c2ccccc2Cl)cc1 (stereo unspecified),inconclusive: 10%
8,Nc1n[nH]c(-c2ccc([N+](=O)[O-])cc2)n1,inconclusive: 15% and inconclusive: 14%
9,NC1=NC2(CCCCC2)N=C(Nc2ccc(Cl)cc2)N1,inconclusive: 14%
10,COc1ccc(/C=C2/C(=O)N(c3ccccc3)N=C2C)cc1,inconclusive: 18%
11,Cc1ccc(CNC(=O)CSc2c3c(nc4ccc(Cl)cc24)CCCC3)o1,inconclusive: 16%
12,O=C(Nc1c(-c2ccccc2)nc2ccccn12)c1ccc([N+](=O)[O-])cc1,inactive
13,CCn1ncc(S(=O)(=O)N2CCC3(CCC(=O)N(C)CC3)CC2)c1C,inconclusive: 15%
14,O=C1N(CCCc2cccnc2)C(=O)C2(CCN(C3CCCC3)CC2)N1Cc1ccccc1,inconclusive: 11%
15,O=c1[nH]c(-c2ccc3c(c2)OCO3)cn1-c1ccc(F)cc1,inconclusive: 12%
16,Cc1nsc(NC(=O)N2CCN(C3CCCC3)C(=O)C2)n1,inconclusive: 14%
17,Cc1c(CCC#N)c(NCCCN(C)C)n2c(nc3ccccc32)c1C#N,inconclusive: 10%
18,O=c1[nH]ccc2ccc(-c3ccn[nH]3)cc12,inconclusive: 16%
19,Cc1ccc(S(=O)(=O)N2CCCCC2)cc1C(N)=O,inactive
20,NC(=O)c1cc(-c2ccco2)nc2ccccc12,inactive
21,COc1ccccc1NC(=O)c1cc(OC)c(OC)c(OC)c1,inconclusive: 19%
22,COc1nc(C)ccc1C(=O)c1ccccc1,inactive
23,CCC(=O)N(c1ccc(OC)cc1)C1C=CS(=O)(=O)C1 (stereo unspecified),inactive

# 2 neighbouring compounds from above, quoted:
row,Structure (SMILES),inhibition
4,O=C(COc1ccccc1)N[C@H]1CO[C@H]2[C@@H]1OC[C@@H]2Nc1nccc(-c2ccc(-c3ccccc3)cc2)n1,inactive
5,CN1CCN2CCN(C(=O)c3c[nH]n4ccnc34)CC2C1 (stereo unspecified),inconclusive: 15%

# Carrying on:

row,Structure (SMILES),inhibition
1,C=CCN(C(=O)c1cnn(CCC)c1C)C1CCS(=O)(=O)C1 (stereo unspecified),inactive
2,O=C(O)c1cnc(N2CC[C@@H](N3CCCCCC3)[C@H](O)C2)c(Cl)c1,inconclusive: 12%
3,COc1cc(C2C3=C(CCCC3=O)NC3=C2C(=O)c2ccccc23)ccc1O (stereo unspecified),inactive
4,CN1[C@@H](CCC(=O)NCc2ccc(F)cc2)CNC(=O)[C@@H]2[C@H]1CCN2Cc1ccccc1,inactive
5,COc1ccc(C2C(C(=O)Nc3ccccn3)c3cc(OC)c(OC)cc3C(=O)N2C)cc1 (stereo unspecified),inactive
6,O[C@@H]1C[C@@H](c2nc(-c3ccccc3)no2)N(Cc2ccccc2)C1,inconclusive: 18%
7,CCOc1ccc2sc(C=NCCc3ccccn3)c(O)c2c1,inactive
8,Cc1nc(C)c(-c2ccc(-n3cccn3)cc2)s1,inconclusive: 13%
9,N#Cc1cccc(NC(=O)N2C[C@@H]3C[C@H](C2)c2ccc(-c4ccc(OC(F)(F)F)cc4)c(=O)n2C3)c1,inconclusive: 17%
10,N[C@@H]1c2ccccc2C2(CCN(C(=O)CCn3cc(Cl)cn3)CC2)[C@H]1O,inconclusive: 29%
11,NC(=O)c1c(NC(=O)C2CCCCC2)sc2c1CCCC2,inconclusive: 14%
12,O=C1NN=C(c2ccccc2O)C1[N+](=O)[O-] (stereo unspecified),inactive
13,COc1cc(NC(=O)O[C@@H]2CO[C@H]3[C@@H]2OC[C@@H]3NC(=O)c2ccco2)cc(OC)c1,inconclusive: 10%
14,CN1CC2(CCN(C(=O)CCc3cccnc3)C2)OC1=O (stereo unspecified),inactive
15,CC1=C(C(=O)Nc2ccccc2F)C(c2ccc(N(C)C)cc2)C2=C(CC(C)(C)CC2=O)N1 (stereo unspecified),inconclusive: 20%
16,O=[N+]([O-])c1ccccc1CN1CCN(c2ncccn2)CC1,active: 31%
17,COc1ccc(-c2nccn2Cc2ccon2)c(OC)c1,inconclusive: 12%
18,CCOC(=O)C1(C/C=C/c2ccccc2)CCCN(C(=O)c2n[nH]c(=O)c3ccccc23)C1 (stereo unspecified),inconclusive: 10%
19,COc1ccc(/C=C2\SC(=O)N(CC(=O)Nc3nccs3)C2=O)cc1OC,inconclusive: 22%
20,CC(=O)Nc1nc(N2C(=O)c3ccccc3C2=O)n(-c2ccccc2)n1,inconclusive: 15%
21,O=C(NCC1CC(=O)N(C2CCCC2)C1)c1ccc2nc[nH]c2c1 (stereo unspecified),inconclusive: 13%
22,Cc1ccc(C)c2c(C)c(C(=O)N3CCC4(CCCN(CC5CC5)C4)C3)[nH]c12 (stereo unspecified),inconclusive: 12%
23,CSc1nc2c(c(=O)[nH]1)C(c1ccc(C(C)C)cc1)C1=C(CC(C)(C)CC1=O)N2 (stereo unspecified),inactive
